Experimental data: publication PMC12519218 (2025)
Results are given in words; binding and its absence hold for the method and conditions named. In cells and extracts the contact can be indirect. Some results given as binding are weak or reduced against the parent protein; the word gives no strength. Tags and fused reporters may be left off the sequences shown.

T1: ATRAP-HA (UniProt Q6RW13)
T1 sequence: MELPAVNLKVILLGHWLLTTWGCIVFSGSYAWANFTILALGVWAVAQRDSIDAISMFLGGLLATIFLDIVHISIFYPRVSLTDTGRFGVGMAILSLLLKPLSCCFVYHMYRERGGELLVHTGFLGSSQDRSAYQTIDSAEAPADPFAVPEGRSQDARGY

T2: GST-AP4μ^160–453 (UniProt O00189)
T2 sequence: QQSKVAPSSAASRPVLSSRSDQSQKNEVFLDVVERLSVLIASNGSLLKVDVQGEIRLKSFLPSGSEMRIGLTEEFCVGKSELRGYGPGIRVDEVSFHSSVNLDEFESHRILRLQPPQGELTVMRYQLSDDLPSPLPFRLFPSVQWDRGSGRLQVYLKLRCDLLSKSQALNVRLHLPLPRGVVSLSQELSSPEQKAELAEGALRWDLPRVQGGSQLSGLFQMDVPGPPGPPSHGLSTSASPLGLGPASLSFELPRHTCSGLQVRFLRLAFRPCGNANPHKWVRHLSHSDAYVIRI

B1: AP4ε-GST (protein, UniProt Q9UPM8 1-1137)
chain: MSDIVEKTLTALPGLFLQNQPGGGPAAAKASFSSRLGSLVRGITALTSKHEEEKLIQQELSSLKATVSAPTTTLKMMKECMVRLIYCEMLGYDASFGYIHAIKLAQQGNLLEKRVGYLAVSLFLHESHELLLLLVNTVVKDLQSTNLVEVCMALTVVSQIFPCEMIPAVLPLIEDKLQHSKEIVRRKAVLALYKFHLIAPNQVQHIHIKFRKALCDRDVGVMAASLHIYLRMIKENSSGYKDLTGSFVTILKQVVGGKLPVEFNYHSVPAPWLQIQLLRILGLLGKDDQRTSELMYDVLDESLRRAELNHNVTYAILFECVHTVYSIYPKSELLEKAAKCIGKFVLSPKINLKYLGLKALTYVIQQDPTLALQHQMTIIECLDHPDPIIKRETLELLYRITNAQNITVIVQKMLEYLHQSKEEYVIVNLVGKIAELAEKYAPDNAWFIQTMNAVFSVGGDVMHPDIPNNFLRLLAEGFDDETEDQQLRLYAVQSYLTLLDMENVFYPQRFLQVMSWVLGEYSYLLDKETPEEVIAKLYKLLMNDSVSSETKAWLIAAVTKLTSQAHSSNTVERLIHEFTISLDTCMRQHAFELKHLHENVELMKSLLPVDRSCEDLVVDASLSFLDGFVAEGLSQGAAPYKPPHQRQEEKLSQEKVLNFEPYGLSFSSSGFTGRQSPAGISLGSDVSGNSAETGLKETNSLKLEGIKKLWGKEGYLPKKESKTGDESGALPVPQESIMENVDQAITKKDQSQVLTQSKEEKEKQLLASSLFVGLGSESTINLLGKADTVSHKFRRKSKVKEAKSGETTSTHNMTCSSFSSLSNVAYEDDYYSNTLHDTGDKELKKFSLTSELLDSESLTELPLVEKFSYCSLSTPSLFANNNMEIFHPPQSTAASVAKESSLASSFLEETTEYIHSNAMEVCNNETISVSSYKIWKDDCLLMVWSVTNKSGLELKSADLEIFPAENFKVTEQPGCCLPVMEAESTKSFQYSVQIEKPFTEGNLTGFISYHMMDTHSAQLEFSVNLSLLDFIRPLKISSDDFGKLWLSFANDVKQNVKMSESQAALPSALKTLQQKLRLHIIEIIGNEGLLACQLLPSIPCLLHCRVHADVLALWFRSSCSTLPDYLLYQCQKVMEGS
B2: ATRAP-HA (protein, UniProt Q6RW13 1-159)
chain: MELPAVNLKVILLGHWLLTTWGCIVFSGSYAWANFTILALGVWAVAQRDSIDAISMFLGGLLATIFLDIVHISIFYPRVSLTDTGRFGVGMAILSLLLKPLSCCFVYHMYRERGGELLVHTGFLGSSQDRSAYQTIDSAEAPADPFAVPEGRSQDARGY

How the values were obtained:
[1] = target: T1, ATRAP-HA; experiment: co-IP; lysates from HEK293T cells expressing the indicated constructs; bound proteins analysed by immunoblot
[2] = target: T2, GST-AP4μ^160–453; experiment: pull-down; purified GST-AP4μ 160–453 incubated with lysates from transfected HEK293T cells; bound proteins analysed by immunoblot, normalised to the 2% loading; only the target purified

| Binder | binding [1] | binding [2] |
| --- | --- | --- |
| B1 | binds | – |
| B2 | – | binds |
